Data as given in PubChem BioAssay AID1259425 (University of Nebraska Medical Center, 2018)
In all, the deposit lists about 14,000 reagents; shown is an unselected part. Not all columns of the deposit are shown. Not stated in the record: the time to read-out.

- Aim: 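Seek colon cancer weak points whose silencing resembles KSR1 loss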 (primary screen)
- System: HCT116 human colon cancer cells
- Knock-down reagent: siRNA pool against human genes, 50 nM siRNA
- Detection: 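After 50 nM siRNA pool, branched-DNA assay measures six marker transcripts per well, minus blank, normalised to the geometric mean of two housekeeping transcripts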
- Scale: BNIP3L mRNA: higher = more BNIP3L transcript after knockdown; NDRG1 mRNA: higher = more NDRG1 transcript after knockdown

{"target gene": "KIF26B", "BNIP3L mRNA, set 1": 0.691, "NDRG1 mRNA, set 1": 2.39}
{"target gene": "CASP6", "BNIP3L mRNA, set 1": 0.0807, "NDRG1 mRNA, set 1": 0.101}
{"target gene": "GCAT", "BNIP3L mRNA, set 1": 0.172, "NDRG1 mRNA, set 1": 0.861}
{"target gene": "SHBG", "BNIP3L mRNA, set 1": 0.0992, "NDRG1 mRNA, set 1": 0.165}
{"target gene": "ATG4D", "BNIP3L mRNA, set 1": 0.153, "NDRG1 mRNA, set 1": 0.444}
{"target gene": "BRI3BP", "BNIP3L mRNA, set 1": 0.1, "NDRG1 mRNA, set 1": 0.0791}
{"target gene": "CAST", "BNIP3L mRNA, set 1": 0.121, "NDRG1 mRNA, set 1": 0.125}
{"target gene": "ITSN2", "BNIP3L mRNA, set 1": 0.327, "NDRG1 mRNA, set 1": 0.245}
{"target gene": "RPUSD4", "BNIP3L mRNA, set 1": 0.181, "NDRG1 mRNA, set 1": 0.233}
{"target gene": "TROAP", "BNIP3L mRNA, set 1": 0.353, "NDRG1 mRNA, set 1": 0.681}
{"target gene": "SLC9A3", "BNIP3L mRNA, set 1": 0.295, "NDRG1 mRNA, set 1": 0.534}
{"target gene": "TSPY1", "BNIP3L mRNA, set 1": 0.0558, "NDRG1 mRNA, set 1": 0.134}
